Measured values: article PMC6062831 (ACS Central Science, 2018)

Sequences of proteins named here, by UniProt entry; tags and fusion partners are left off. A change or cut given only in a name is not applied to a line headed by its entry.
UniProt P05804: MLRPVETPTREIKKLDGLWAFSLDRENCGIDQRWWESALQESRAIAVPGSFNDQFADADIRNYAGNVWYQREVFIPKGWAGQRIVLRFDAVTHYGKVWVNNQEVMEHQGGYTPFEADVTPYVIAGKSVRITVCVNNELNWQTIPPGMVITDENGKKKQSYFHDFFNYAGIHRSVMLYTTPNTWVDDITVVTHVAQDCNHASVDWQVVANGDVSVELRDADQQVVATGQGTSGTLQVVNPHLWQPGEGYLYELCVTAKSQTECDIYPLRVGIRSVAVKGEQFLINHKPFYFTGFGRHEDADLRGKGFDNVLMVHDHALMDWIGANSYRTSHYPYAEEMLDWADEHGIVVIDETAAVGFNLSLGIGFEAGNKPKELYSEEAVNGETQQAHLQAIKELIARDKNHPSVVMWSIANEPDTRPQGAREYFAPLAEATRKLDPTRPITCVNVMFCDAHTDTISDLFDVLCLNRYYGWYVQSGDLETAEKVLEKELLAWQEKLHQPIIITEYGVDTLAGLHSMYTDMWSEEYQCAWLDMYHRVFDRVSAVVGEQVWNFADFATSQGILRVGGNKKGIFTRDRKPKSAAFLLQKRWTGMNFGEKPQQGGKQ

Biological target: EcGUS (Escherichia coli, UniProt P05804)
Test: biochemical

Clc1ccc2c(c1)C(N1CCNCC1)=Nc1ccccc1O2 [amoxapine]
IC50: 530 ± 10 nM
